# Percent effect of library compounds

Protein sequences, listed by entry. Tags and fused reporters are not part of them. Residues count along the entry.
UniProt Q4DA54, 1-478: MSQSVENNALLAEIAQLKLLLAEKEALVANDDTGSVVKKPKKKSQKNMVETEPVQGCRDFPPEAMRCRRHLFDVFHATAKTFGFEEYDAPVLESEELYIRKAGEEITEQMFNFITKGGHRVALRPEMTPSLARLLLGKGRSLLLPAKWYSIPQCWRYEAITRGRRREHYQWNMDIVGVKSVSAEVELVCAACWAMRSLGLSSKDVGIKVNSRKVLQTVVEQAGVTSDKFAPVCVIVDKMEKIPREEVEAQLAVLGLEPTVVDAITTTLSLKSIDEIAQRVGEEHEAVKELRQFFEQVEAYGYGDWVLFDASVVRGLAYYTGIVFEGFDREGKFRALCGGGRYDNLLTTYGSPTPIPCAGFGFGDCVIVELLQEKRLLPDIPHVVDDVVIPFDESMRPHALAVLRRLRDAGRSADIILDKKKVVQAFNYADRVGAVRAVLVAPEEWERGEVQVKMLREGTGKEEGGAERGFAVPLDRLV
UniProt P9WNZ1, whole entry: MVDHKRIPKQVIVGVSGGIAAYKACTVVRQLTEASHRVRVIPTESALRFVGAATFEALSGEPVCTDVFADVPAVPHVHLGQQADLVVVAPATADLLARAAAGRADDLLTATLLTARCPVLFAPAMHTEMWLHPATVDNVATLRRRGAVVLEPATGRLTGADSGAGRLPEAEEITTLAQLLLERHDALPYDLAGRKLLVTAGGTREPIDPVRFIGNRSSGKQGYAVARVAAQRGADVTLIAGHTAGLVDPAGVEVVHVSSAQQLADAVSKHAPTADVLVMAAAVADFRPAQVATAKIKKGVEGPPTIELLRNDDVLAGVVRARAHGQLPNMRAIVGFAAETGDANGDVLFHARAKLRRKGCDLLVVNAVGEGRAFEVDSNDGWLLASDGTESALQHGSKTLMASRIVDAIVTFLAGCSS
UniProt A4I591, 1-473: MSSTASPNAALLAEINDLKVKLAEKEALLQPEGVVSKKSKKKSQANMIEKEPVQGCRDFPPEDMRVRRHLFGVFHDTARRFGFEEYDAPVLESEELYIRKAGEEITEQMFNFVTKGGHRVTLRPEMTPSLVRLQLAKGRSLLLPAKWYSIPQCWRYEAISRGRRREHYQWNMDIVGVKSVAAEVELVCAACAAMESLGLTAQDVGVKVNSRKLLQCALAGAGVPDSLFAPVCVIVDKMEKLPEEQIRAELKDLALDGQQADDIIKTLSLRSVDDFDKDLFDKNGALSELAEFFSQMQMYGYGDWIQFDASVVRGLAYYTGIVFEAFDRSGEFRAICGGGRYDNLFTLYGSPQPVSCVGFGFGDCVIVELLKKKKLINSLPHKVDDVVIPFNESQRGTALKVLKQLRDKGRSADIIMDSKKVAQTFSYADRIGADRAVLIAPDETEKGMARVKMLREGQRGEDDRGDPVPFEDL

Source: ChEMBL document CHEMBL3988442, “University of Dundee, Small-Polar-MMV Screening Library” (2021).

TcHisRS: 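Histidine-tRNA ligase, Trypanosoma cruzi CL Brener (UniProt Q4DA54). Enzyme assay of histidyl-tRNA synthetase; the read-out is not stated. Compounds at 30 µM. Higher reads as stronger inhibition (inferred: compounds with an IC50 in retests scored well above the rest). Of about 69,000 compounds tested this way, about 31 (0.045%) reached 50% or more in at least one test.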
Leishmania in macrophages: 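Cell assay of Leishmania donovani living inside macrophages; the read-out is not stated. Tested at 30 µM. The record gives no direction; compounds that gave an IC50 in retests scored well above the rest, so higher reads as stronger inhibition. About 69,000 compounds were tested under these conditions; 1.5% (about 1,000) showed 50% or more at least once.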
Toxoplasma: 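Assay of Toxoplasma gondii numbers, read through their beta-galactosidase reporter with a colour substrate. Tested at 10 µM. Higher reads as fewer parasites (inferred from which compounds were picked for retests). Size under these conditions: about 67,000 compounds, about 260 of them at 50% or above in at least one test.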
CoaBC: 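Enzyme assay of CoaBC with a phosphate dye (Biomol Green) read at 650 nm. Target: Coenzyme A biosynthesis protein CoaBC, Mycobacterium tuberculosis (UniProt P9WNZ1). Compounds at 30 µM. Higher reads as stronger inhibition, judged from the few compounds that gave an IC50. Most strong results did not repeat in a second test. Of about 67,000 compounds tested this way, about 40 (0.06%) reached 50% or more in at least one test.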
LiHisRS: 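Histidine-tRNA ligase, Leishmania infantum (UniProt A4I591). Enzyme assay of histidyl-tRNA synthetase; the read-out is not stated. Concentration: 30 µM. Higher reads as stronger inhibition (inferred: compounds with an IC50 in retests scored well above the rest). The assay is labelled LdHisRS but filed under L. infantum. Size under these conditions: about 69,000 compounds, about 410 of them at 50% or above in at least one test.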

The filed quantity is “Percent Effect” (%). The controls that fix the scale are not given in the record; negative values are as filed. The compounds are a random part of those screened. Two or more numbers in one place are separate tests of the same structure; such repeats can differ widely. A dash means the value is not listed here; it may have been measured.

SMILES | TcHisRS | Leishmania in macrophages | Toxoplasma | CoaBC | LiHisRS
O=C(NCC1CC1)[C@H]1C[C@H]2OCC[C@H]2N(Cc2ccsc2)C1 | 2.732 | - | - | 0.1287 | 0
[H][C@]12CCC(=O)N(c3ccccc3)[C@@]1([H])CCN2C(=O)c1ccc(C#N)cc1 | - | -1.793 | -0.1664 | - | -
CCCS(=O)(=O)N1CCN(CC(F)(F)F)CC1 | 0.4878 | 8.121 | 6.873 | 2.886 | 11.86
COC(=O)CC1CCN(C(=O)Nc2ccc(-c3ccn[nH]3)cc2)C1 (stereo not given) | 2.128 | 5.605 | -2.996 | 3.893 | 4.286
Cc1cc(C)c2nc(C)c(C(=O)N3CCC(N4CCCC4)CC3)cc2c1 | 17.24 | -1.098 | 30 | 0.2392 | 27.34
O=C(NC1CCN(c2snc3ccccc23)CC1)C1CCC1 | -17.67 | 12.55 | 9.28 | 10.7 | 24.32
O=C(c1cnc(-c2cccnc2)nc1)N1CCSCC1 | 0.9901 | -4.703 | 1.887 | 1.332 | 20.65
Cc1cccc(NC(=O)CN(C)C(=O)c2ccc(-n3cccc3)nc2)n1 | 5.556 | -13.36 | -11.55 | -1.681 | 16.24
Cc1nc(C2CCN(S(=O)(=O)c3ccc4c(c3)CCO4)CC2)n[nH]1 | 10.83 | -10.39 | 3.452 | - | 18.31
Cn1nc2c(cc1=O)CN(c1ncnc3sccc13)CC2 | 41.67 | 23.92 | 80.8 | 1.058 & 22.57 | 100
O=C(NCCN1CCCCC1)c1nc2ccccc2c(=O)[nH]1 | 0.5464 | -2.936 | -5.38 | 1.48 | 1.942
Cc1nc(C(=O)NC2CCN(CCOc3ccc(Br)cc3)CC2)cs1 | 9.497 | 27.48 | -4.991 | -20.97 | 10.53
O=C(O)C(F)(F)F.[H][C@@]12CCN(C(=O)C(C)C)CC[C@]1(C(=O)N1CCCC1)CCN2C | - | 9.946 | -11.65 | - | -
Cc1nc2cc(=O)[nH]n2c(C)c1CNC(=O)c1cnn(C(C)(C)C)c1 | 7.738 | 7.694 | -3.058 | 0.1218 | 26.88
CCn1ncc2c1CCCC2NCc1ccc2c(c1)CCO2 (stereo not given) | 2.254 | 2.823 | -34.49 | -0.8906 | 7.826
CN(C)CCOCC1CN(C(=O)c2ccccn2)Cc2ccnn2C1 (stereo not given) | 1.961 | -21.86 | 1.07 | 1.954 | -2.857
Cc1cccc(C2(CNC(=O)C(C)NC(N)=O)CCCC2)c1 (stereo not given) | 13.79 | 4.05 | 5.508 | -0.5894 | 14.91
O=C1N(Cc2cccc(F)c2F)CCCC1(O)CNC1CCCC1 (stereo not given) | -1.245 | 25.43 | -2.863 | 0.4464 | 16.5
O=C(NCc1ccco1)[C@@H]1CCO[C@@H]2CCN(c3ncccn3)C[C@@H]21 | 7.563 | - | - | 1.42 | -4.587
Cc1cc(C)c2c(NCCC3(O)CCCC3)ncnc2n1 | 5.6 | 9.992 | -49.54 | 1.082 | 13.11
COc1ccccc1-n1cc(CN2CCN(C)[C@@H]3CS(=O)(=O)C[C@@H]32)cn1 | 4.124 | - | - | 13.41 | 17.14
O=C(C1CCN(S(=O)(=O)N2CCCC2)CC1)N1CCC2(CC1)OCCO2 | 2.513 | -18.78 | 0.5323 | -0.361 | 11.24
Cc1ccnc(NC(=O)c2[nH]nc(C(C)C)c2Br)c1 | 1.163 | -14.89 | -10.39 | 18.04 & 21.49 | 12.5
Cc1cnn(CC2CCCN2Cc2cn3ccsc3n2)c1 (stereo not given) | 3.812 | 27.3 | -38.58 | 2.632 | 6.481
F[C@@H]1CN(CC2CC2)C[C@@H]1OCc1nc2cnccc2[nH]1 | -1.493 | -1.34 | 0.5206 | 3.34 | 21.62
[H][C@]12CC[C@]([H])(CN(Cc3c(C)noc3C)C1)N(Cc1csc(C(C)=O)c1)C2 | - | 12.9 | 13.97 | - | -
COC(=O)CN(C(=O)c1ccc(Cl)o1)c1cccc(F)c1 | -3.614 | 10.18 | -11.56 | -0.495 | 4
Cc1nc(CN2CCC3(C2)CN(Cc2ccco2)C3)cs1 | 7.735 | 58.57 | -7.572 | 3.713 | 13.51
[H][C@@]12CC(C)=CC[C@]1([H])CN(C(=O)c1ccc(-c3cc[nH]n3)cc1)C2 | - | -14.91 | -11.11 | - | -
CCS(=O)(=O)CCN1CCN(C(C)c2cccnc2)CC1 (stereo not given) | 7.407 | -10.56 | -10.79 | -2.457 | -6.452
CS(=O)(=O)N1CCC(Oc2ccc(C(=O)NCC3CCC3)cc2Cl)CC1 | 2.116 | 14.3 | 2.152 | -4.142 | 21.21
COCC(=O)N1CCC2(C1)c1ccccc1S(=O)(=O)N2CCC(C)C (stereo not given) | 9.524 | 15.26 | 4.632 | 2.836 | 2.778
O=C(O)C(F)(F)F.[H][C@@]12CCN(Cc3cn(C)c4ccccc34)[C@]1([H])CC[C@@H](C(=O)NC(C)C)O2 | - | 18.06 | -0.8679 | - | -
CNc1cncc(C2CCN(S(C)(=O)=O)CC2)n1 | 8.527 | -4.004 | 13.59 | -2.086 | 12.77
[H][C@@]12CCN(c3ncccn3)C[C@]1(C(=O)NCc1ccccn1)CCO2 | - | 12.54 | -12.51 | - | -
CNc1cc2c(nn1)CCN(C(=O)c1cccc3c1OCO3)C2 | 0 | 33.24 | -2.012 | 3.855 | 16.44
CC(C)(C)C(Cn1ccnc1)NC(=O)NCc1ccco1 (stereo not given) | -1.538 | 14.76 | 18.17 | 1.242 | 14.29
Cc1n[nH]c(C2CN(Cc3nnc(C4CC4)n3C)CCO2)n1 (stereo not given) | -4.202 | -10.62 | -0.579 | -12.74 | 4.959
[H][C@@]12CNC[C@]1([H])N(C(=O)C1CCCCC1)CCO2 | - | 29.99 | 5.26 | - | -

The last 3 entries again:

{"smiles": "CC(C)(C)C(Cn1ccnc1)NC(=O)NCc1ccco1", "stereo": "stereo not given", "TcHisRS": -1.538, "Leishmania in macrophages": 14.76, "Toxoplasma": 18.17, "CoaBC": 1.242, "LiHisRS": 14.29}
{"smiles": "Cc1n[nH]c(C2CN(Cc3nnc(C4CC4)n3C)CCO2)n1", "stereo": "stereo not given", "TcHisRS": -4.202, "Leishmania in macrophages": -10.62, "Toxoplasma": -0.579, "CoaBC": -12.74, "LiHisRS": 4.959}
{"smiles": "[H][C@@]12CNC[C@]1([H])N(C(=O)C1CCCCC1)CCO2", "Leishmania in macrophages": 29.99, "Toxoplasma": 5.26}